Laboratory results reported in the supplement of paper PMC10849652.
This is one part of the list.

Chains of the proteins cited; added tags and fusions are not shown. Lines headed by an entry give the natural chain unless they say otherwise; changes in a name come on top.
UniProt Q15043: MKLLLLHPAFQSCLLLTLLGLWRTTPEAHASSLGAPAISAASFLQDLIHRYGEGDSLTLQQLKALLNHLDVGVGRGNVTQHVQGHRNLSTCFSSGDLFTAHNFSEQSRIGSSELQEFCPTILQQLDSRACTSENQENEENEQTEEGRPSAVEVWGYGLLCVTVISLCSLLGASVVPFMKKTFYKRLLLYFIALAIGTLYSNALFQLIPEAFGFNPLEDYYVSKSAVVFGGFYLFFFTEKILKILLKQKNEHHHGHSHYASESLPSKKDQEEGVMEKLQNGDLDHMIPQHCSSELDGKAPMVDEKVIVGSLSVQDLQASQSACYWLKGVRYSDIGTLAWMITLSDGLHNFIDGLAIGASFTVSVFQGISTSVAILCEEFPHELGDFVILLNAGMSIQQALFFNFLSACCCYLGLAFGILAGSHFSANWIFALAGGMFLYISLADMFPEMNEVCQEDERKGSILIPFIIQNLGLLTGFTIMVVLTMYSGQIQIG
UniProt Q9UPY5: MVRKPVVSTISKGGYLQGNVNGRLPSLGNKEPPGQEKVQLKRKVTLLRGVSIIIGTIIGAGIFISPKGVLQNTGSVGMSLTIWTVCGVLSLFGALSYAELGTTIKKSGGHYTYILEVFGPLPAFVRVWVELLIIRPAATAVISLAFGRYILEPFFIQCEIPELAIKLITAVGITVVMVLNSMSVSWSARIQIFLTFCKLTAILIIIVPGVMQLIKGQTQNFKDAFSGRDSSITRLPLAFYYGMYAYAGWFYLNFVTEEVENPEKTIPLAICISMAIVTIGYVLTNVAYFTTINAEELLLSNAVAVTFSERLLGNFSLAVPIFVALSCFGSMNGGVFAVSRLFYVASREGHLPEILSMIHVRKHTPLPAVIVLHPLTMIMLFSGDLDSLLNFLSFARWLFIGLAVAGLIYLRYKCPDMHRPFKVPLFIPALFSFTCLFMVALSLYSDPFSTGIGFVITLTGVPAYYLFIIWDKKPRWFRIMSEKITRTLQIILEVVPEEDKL
UniProt Q969S0: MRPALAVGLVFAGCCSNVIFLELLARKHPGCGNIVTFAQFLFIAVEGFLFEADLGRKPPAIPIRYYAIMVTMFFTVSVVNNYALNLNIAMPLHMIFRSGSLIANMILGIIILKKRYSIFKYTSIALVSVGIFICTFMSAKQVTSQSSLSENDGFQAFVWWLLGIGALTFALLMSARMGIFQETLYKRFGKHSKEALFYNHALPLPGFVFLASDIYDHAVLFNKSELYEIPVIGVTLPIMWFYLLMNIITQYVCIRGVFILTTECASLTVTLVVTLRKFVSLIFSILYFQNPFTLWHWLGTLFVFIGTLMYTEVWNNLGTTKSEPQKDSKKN
UniProt Q9H1U9: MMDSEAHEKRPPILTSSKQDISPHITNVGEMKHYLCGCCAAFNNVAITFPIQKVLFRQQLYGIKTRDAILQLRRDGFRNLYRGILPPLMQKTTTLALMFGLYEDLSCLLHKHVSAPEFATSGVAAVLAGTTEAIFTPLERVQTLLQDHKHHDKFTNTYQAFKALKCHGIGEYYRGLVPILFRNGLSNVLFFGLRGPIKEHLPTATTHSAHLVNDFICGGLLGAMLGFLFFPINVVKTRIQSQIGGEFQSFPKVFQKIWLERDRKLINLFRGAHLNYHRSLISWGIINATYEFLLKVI
UniProt Q8IXU6: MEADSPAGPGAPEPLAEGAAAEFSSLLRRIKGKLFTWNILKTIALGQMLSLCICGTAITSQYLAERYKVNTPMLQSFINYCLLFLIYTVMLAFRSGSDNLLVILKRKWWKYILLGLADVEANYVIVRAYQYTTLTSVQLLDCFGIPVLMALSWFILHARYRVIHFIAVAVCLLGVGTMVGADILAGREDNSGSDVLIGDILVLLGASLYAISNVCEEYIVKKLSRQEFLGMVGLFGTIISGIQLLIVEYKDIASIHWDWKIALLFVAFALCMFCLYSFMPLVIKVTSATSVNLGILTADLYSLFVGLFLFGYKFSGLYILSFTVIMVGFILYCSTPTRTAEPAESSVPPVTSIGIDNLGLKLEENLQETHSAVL
UniProt Q6P1K1: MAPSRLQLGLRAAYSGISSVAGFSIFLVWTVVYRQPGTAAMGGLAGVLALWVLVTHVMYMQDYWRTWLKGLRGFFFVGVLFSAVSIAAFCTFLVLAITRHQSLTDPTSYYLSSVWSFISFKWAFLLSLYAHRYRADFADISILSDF
UniProt O75387: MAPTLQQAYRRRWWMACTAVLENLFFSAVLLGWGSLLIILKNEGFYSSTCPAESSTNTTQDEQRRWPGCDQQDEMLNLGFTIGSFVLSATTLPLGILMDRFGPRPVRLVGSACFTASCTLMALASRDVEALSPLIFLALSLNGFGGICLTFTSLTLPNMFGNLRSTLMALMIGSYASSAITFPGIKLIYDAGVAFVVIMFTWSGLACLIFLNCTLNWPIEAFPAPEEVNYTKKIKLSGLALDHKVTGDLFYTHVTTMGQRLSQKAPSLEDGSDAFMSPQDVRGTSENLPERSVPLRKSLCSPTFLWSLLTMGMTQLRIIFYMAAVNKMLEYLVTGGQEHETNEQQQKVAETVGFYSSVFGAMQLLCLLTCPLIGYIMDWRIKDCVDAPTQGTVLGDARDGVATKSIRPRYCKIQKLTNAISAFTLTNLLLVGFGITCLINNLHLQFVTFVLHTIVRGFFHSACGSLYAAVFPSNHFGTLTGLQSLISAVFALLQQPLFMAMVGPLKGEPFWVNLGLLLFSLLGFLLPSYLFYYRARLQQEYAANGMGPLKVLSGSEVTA
UniProt Q14542: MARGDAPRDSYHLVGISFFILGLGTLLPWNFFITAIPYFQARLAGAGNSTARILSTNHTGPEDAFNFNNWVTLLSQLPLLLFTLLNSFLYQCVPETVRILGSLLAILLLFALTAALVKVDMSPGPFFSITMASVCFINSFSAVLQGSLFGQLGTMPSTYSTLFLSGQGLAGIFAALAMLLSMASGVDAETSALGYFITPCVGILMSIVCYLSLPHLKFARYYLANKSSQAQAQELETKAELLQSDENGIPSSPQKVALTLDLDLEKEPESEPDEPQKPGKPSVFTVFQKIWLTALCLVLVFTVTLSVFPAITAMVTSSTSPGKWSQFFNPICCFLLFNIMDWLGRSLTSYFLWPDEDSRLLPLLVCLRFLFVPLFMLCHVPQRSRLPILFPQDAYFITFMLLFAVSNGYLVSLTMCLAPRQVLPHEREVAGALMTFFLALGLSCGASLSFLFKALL
UniProt P30825: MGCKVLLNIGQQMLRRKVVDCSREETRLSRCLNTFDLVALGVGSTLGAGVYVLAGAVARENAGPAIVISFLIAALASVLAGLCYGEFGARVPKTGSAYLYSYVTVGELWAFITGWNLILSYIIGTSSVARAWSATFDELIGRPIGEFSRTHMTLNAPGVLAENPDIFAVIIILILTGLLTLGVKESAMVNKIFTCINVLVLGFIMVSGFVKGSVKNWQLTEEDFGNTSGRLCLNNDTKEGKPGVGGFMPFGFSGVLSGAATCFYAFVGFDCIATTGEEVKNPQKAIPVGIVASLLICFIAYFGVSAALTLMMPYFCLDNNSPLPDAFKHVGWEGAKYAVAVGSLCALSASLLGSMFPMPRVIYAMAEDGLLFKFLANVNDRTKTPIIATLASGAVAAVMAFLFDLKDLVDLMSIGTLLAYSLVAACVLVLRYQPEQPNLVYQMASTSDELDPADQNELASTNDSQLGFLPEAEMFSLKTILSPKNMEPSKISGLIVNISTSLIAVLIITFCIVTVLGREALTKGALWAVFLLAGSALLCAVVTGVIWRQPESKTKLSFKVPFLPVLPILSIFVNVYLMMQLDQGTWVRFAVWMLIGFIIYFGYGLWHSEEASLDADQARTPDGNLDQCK
UniProt Q92536: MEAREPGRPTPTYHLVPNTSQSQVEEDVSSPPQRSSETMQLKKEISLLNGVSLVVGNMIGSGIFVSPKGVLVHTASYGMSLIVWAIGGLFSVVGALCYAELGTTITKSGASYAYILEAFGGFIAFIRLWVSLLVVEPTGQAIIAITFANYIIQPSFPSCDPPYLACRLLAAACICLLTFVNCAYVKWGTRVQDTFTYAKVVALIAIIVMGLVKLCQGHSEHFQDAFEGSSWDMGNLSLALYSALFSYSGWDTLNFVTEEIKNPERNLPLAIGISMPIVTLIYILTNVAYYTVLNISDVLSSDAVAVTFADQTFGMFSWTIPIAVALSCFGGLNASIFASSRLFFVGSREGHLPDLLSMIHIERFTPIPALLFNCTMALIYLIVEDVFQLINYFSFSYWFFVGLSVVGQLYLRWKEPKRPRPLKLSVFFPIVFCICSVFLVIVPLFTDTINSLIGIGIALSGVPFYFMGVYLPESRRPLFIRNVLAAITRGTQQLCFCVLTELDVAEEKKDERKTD
UniProt Q5SVS4: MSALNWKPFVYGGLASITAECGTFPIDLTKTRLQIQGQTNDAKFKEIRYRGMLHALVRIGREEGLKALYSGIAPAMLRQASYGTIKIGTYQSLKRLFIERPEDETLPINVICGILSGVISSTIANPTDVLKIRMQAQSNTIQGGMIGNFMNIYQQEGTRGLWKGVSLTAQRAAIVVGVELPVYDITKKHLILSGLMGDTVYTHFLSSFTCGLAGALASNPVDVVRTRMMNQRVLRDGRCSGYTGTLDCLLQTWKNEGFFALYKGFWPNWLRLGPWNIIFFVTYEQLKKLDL
UniProt Q9H2D1: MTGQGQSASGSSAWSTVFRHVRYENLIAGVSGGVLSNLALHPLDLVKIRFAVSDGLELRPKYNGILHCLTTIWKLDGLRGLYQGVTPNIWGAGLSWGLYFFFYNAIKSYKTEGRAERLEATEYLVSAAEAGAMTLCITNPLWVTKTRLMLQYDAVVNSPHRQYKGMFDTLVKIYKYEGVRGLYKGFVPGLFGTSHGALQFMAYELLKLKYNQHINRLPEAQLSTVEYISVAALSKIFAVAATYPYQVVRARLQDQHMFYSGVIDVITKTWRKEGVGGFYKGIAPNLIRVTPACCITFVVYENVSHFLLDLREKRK
UniProt Q9Y2E8: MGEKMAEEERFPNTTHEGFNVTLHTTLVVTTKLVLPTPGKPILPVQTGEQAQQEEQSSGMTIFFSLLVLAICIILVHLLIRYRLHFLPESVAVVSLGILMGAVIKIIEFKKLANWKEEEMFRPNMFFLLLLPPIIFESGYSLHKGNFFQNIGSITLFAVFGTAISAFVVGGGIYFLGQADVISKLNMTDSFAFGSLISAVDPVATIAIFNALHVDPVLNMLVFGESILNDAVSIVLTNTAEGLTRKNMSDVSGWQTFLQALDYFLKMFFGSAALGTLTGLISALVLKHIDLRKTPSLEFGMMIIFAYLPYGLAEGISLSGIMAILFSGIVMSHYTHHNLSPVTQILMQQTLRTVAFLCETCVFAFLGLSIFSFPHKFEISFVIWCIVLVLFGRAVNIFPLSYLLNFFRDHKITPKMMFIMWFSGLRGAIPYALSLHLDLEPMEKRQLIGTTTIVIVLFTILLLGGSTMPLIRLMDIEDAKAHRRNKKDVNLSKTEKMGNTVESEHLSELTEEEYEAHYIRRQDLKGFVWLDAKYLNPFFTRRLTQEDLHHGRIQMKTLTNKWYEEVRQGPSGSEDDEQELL
UniProt Q6NXT4: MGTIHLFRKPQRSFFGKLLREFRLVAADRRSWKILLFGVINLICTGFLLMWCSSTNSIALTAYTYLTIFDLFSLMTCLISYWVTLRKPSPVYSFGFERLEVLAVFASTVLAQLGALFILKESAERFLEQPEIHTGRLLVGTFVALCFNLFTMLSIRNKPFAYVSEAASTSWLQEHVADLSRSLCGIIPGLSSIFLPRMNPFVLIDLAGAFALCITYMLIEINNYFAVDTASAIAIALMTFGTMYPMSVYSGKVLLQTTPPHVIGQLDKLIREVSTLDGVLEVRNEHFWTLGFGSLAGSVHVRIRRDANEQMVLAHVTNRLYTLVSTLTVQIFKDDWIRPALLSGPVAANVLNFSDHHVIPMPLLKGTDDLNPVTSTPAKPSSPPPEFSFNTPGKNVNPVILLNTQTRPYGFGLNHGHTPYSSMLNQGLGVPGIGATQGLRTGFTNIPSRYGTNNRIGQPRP
UniProt Q96AG3: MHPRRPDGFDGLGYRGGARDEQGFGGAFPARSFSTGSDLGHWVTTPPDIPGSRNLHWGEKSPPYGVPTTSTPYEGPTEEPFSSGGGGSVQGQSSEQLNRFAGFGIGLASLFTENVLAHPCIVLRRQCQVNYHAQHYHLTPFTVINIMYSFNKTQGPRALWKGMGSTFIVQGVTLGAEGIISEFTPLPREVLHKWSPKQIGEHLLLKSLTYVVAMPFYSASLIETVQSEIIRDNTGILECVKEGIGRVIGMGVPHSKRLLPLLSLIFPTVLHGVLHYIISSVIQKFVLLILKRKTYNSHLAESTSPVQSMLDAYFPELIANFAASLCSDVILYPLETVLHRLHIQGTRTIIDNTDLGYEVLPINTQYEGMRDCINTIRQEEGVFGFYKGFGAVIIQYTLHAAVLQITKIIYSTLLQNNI
UniProt O15431: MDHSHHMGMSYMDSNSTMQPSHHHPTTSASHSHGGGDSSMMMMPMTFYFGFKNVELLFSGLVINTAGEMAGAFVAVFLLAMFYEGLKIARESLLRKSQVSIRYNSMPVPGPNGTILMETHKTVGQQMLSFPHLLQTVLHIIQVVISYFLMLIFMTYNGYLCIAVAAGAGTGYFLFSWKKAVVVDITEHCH

What follows are targets tested with Cc1cccc(CC(=O)N2CCc3c2ccc(-c2cn(C)c4ncnc(N)c24)c3F)n1 (assay: log2 fold change, soluble protein after heating vs DMSO (PISA); higher = thermal stabilisation; K562 lysate, 10 uM; active = over 0.2 and 3.5 SD of the protein, either way, in both replicates (recomputed)).
Procedure, shortened: (§1)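 Values give the log-two fold change in thermal stability against solvent controls, from duplicates. Crude K562 extract at 1 mg/mL protein, made by dounce homogenisation in PBS pH 7.4 with 1 mM MgCl2, was treated with 10 μM compound for 30 min. After 3 min heating across 48°C-58°C, aliquots were pooled, adjusted to 0.5% NP-40 at 4°C and centrifuged at 21,000xg for 90 min. The supernatant was measured by TMTpro 16plex LC-MS/MS with channel sums equalised.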

log2 fold change, inactive:
SLC4A1 (UniProt P02730) 0.076, SLC45A4 isoform 3 (UniProt Q5BKX6) 0.029, SLC39A14 (UniProt Q15043) -0.04, SLC7A11 (UniProt Q9UPY5) 0, SLC5A3 (UniProt P53794) -0.06, SLC22A23 (UniProt A1A5C7) 0, SLC25A33 (UniProt Q9BSK2) 0.018, SLC25A44 (UniProt Q96H78) 0.166, SLC25A26 (UniProt Q70HW3) 0.113, SLC35B4 (UniProt Q969S0) 0.137, SLC25A17 (UniProt O43808) 0.085, SLC35B3 (UniProt Q9H1N7) 0.099, SLC25A51 (UniProt Q9H1U9) 0.108, SLC35F2 (UniProt Q8IXU6) 0.175, SLC26A2 (UniProt P50443) 0.113, SLC48A1 (UniProt Q6P1K1) 0.133, SLC43A1 (UniProt O75387) 0.076, SLC29A2 (UniProt Q14542) 0.146, SLC22A5 isoform 3 (UniProt O76082) -0.073, SLC3A2 (UniProt F5H867) 0.292, SLC9A6 isoform 2 (UniProt Q92581) -0.156, SLC3A2 (UniProt F5GZS6) 0.185, SLC52A2 (UniProt Q9HAB3) 0.032, SLC7A1 (UniProt P30825) -0.031, SLC7A6 (UniProt Q92536) 0.058, SLC39A1 (UniProt Q9NY26) 0.337, SLC66A1 (UniProt Q6ZP29) 0.015, SLC5A6 (UniProt Q9Y289) 0.012, SLC25A30 (UniProt Q5SVS4) 0.01, SLC35E1 (UniProt Q96K37) 0.027, SLC25A32 (UniProt Q9H2D1) 0.1, SLC9A8 isoform 2 (UniProt Q9Y2E8) -0.115, SLC2A4 (UniProt P14672) 0.064, SLC30A6 isoform 2 (UniProt Q6NXT4) 0.116, SLC25A46 (UniProt Q96AG3) 0.062, SLC31A1 (UniProt O15431) 0.016, SLC39A7 (UniProt Q92504) 0.038

These targets were tested with Cc1cn(-c2cc(NC(=O)c3ccc(C)c(Nc4nccc(-c5cccnc5)n4)c3)cc(C(F)(F)F)c2)cn1 [nilotinib] in the same assay as above.
Procedure, shortened: as §1

log2 fold change, inactive:
SLC4A1 (UniProt P02730) 0.056, SLC45A4 isoform 3 (UniProt Q5BKX6) 0.135, SLC35C1 (UniProt Q96A29) -0.134, SLC39A14 (UniProt Q15043) -0.027, SLC7A11 (UniProt Q9UPY5) 0.024, SLC5A3 (UniProt P53794) 0.008, SLC25A33 (UniProt Q9BSK2) 0.029, SLC25A26 (UniProt Q70HW3) -0.066, SLC35B4 (UniProt Q969S0) 0.015, SLC25A17 (UniProt O43808) -0.049, SLC35B3 (UniProt Q9H1N7) -0.067, SLC25A51 (UniProt Q9H1U9) 0.043, SLC35F2 (UniProt Q8IXU6) 0.04, SLC48A1 (UniProt Q6P1K1) -0.425, SLC43A1 (UniProt O75387) -0.047, SLC29A2 (UniProt Q14542) 0.083, SLC3A2 (UniProt F5H867) -0.151, SLC3A2 (UniProt F5GZS6) -0.114, SLC7A1 (UniProt P30825) -0.012, SLC7A6 (UniProt Q92536) -0.143, SLC66A1 (UniProt Q6ZP29) 0.133, SLC5A6 (UniProt Q9Y289) -0.009, SLC25A30 (UniProt Q5SVS4) 0.044, SLC25A32 (UniProt Q9H2D1) 0.007, SLC9A8 isoform 2 (UniProt Q9Y2E8) 0, SLC30A6 isoform 2 (UniProt Q6NXT4) -0.029, SLC25A46 (UniProt Q96AG3) -0.05, SLC31A1 (UniProt O15431) -0.021, SLC39A7 (UniProt Q92504) 0

These targets were tested with Cc1nc(Nc2n[nH]c3c2CN(C(=O)N[C@H](CN(C)C)c2ccccc2)C3(C)C)c2sccc2n1 in the same assay as above.
Procedure, shortened: as §1

log2 fold change, inactive:
SLC4A1 (UniProt P02730) 0, SLC45A4 isoform 3 (UniProt Q5BKX6) -0.221, SLC35C1 (UniProt Q96A29) 0.217, SLC39A14 (UniProt Q15043) -0.015, SLC7A11 (UniProt Q9UPY5) 0.024, SLC5A3 (UniProt P53794) -0.004, SLC25A33 (UniProt Q9BSK2) 0.042, SLC25A26 (UniProt Q70HW3) 0.057, SLC35B4 (UniProt Q969S0) 0.024, SLC25A17 (UniProt O43808) 0.006, SLC35B3 (UniProt Q9H1N7) -0.024, SLC25A51 (UniProt Q9H1U9) -0.036, SLC35F2 (UniProt Q8IXU6) 0.053, SLC48A1 (UniProt Q6P1K1) 0.132, SLC43A1 (UniProt O75387) 0.043, SLC29A2 (UniProt Q14542) 0.095, SLC3A2 (UniProt F5H867) -0.03, SLC3A2 (UniProt F5GZS6) -0.094, SLC7A1 (UniProt P30825) 0.011, SLC7A6 (UniProt Q92536) 0.272, SLC66A1 (UniProt Q6ZP29) 0.088, SLC5A6 (UniProt Q9Y289) -0.031, SLC25A30 (UniProt Q5SVS4) -0.037, SLC25A32 (UniProt Q9H2D1) 0.033, SLC9A8 isoform 2 (UniProt Q9Y2E8) -0.07, SLC30A6 isoform 2 (UniProt Q6NXT4) 0.118, SLC25A46 (UniProt Q96AG3) -0.002, SLC31A1 (UniProt O15431) 0.02, SLC39A7 (UniProt Q92504) 0.026
